Source: PubChem BioAssay AID686938 (Drosophila RNAi Screening Center, 2013)

Aim: 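Fly genes required for calcium entry once internal stores are emptied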 (primary screen)
System: Drosophila S2R+ cells
Reagent: long dsRNA against Drosophila genes, about 0.25 µg dsRNA per well, roughly 10,000 cells
Time to read-out: 5 days of knock-down before the calcium assay
Conditions: thapsigargin (SERCA pump blocker) to empty calcium stores; entry signal taken 4 min after adding it
Measured: 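Per-well fluo-4 fluorescence in two replicates, unnormalised, measured in resting cells and 4 min after store depletion by the SERCA blocker thapsigargin; ratio of the two present in few wells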
Scale: calcium entry signal: higher = stronger calcium signal after store depletion; entry to resting ratio: higher = more calcium entry relative to resting level; resting calcium signal: higher = higher resting calcium signal
Active means: 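Called when the plate z-score of the entry-to-rest ratio, mean of duplicates, falls below −3; wells with low overall dye signal (Fmax z below −2) or more than five off-targets excluded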
Meaning of the calls: active = strongly reduced calcium entry; inactive = no strong reduction
In all, the deposit lists about 23,000 reagents; below is a random part of those that have a named target and a result. Of all reagents, 75 (0.33%) got an active call. 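Raw plate signals without normalisation; calls rest on plate z-scores that were not deposited; ratio present for only 364 wells.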 A plus sign joins genes that one reagent is predicted to hit. Not given: the dose of the treatment.

Gene | DRSC id | calcium entry signal, replicate 1 (fluorescence units) | calcium entry signal, replicate 2 (fluorescence units) | entry to resting ratio | resting calcium signal, replicate 1 (fluorescence units) | resting calcium signal, replicate 2 (fluorescence units) | Outcome
CG3557 | DRSC00614 | 3.78e7 | – | – | 2.08e7 | – | inactive
CG18808 | DRSC08539 | 3.09e7 | 4.41e7 | – | 1.51e7 | 1.89e7 | inactive
CG6094 | DRSC02927 | 3.21e7 | 4.68e7 | – | 1.54e7 | 2.20e7 | inactive
CG6094 | DRSC22705 | 5.20e7 | 4.91e7 | – | 2.45e7 | 1.61e7 | inactive
Fitm | DRSC09772 | 5.95e7 | 4.32e7 | – | 3.75e7 | 1.74e7 | inactive
CG12945 | DRSC14573 | 2.97e7 | 3.14e7 | – | 1.75e7 | 1.76e7 | inactive
Zir | DRSC00307 | 4.07e7 | – | – | 1.87e7 | – | inactive
Erasp | DRSC07111 | 3.12e7 | 2.52e7 | – | 1.40e7 | 1.40e7 | inactive
sowah | DRSC09186 | 3.90e7 | 4.18e7 | – | 1.93e7 | 1.88e7 | inactive
sowah | DRSC09758 | 5.79e7 | 4.92e7 | – | 3.87e7 | 1.97e7 | inactive
Ir94a | DRSC13538 | 4.34e7 | 2.65e7 | – | 2.33e7 | 1.25e7 | inactive
aurA | DRSC16905 | 4.25e7 | 4.14e7 | – | 2.09e7 | 1.93e7 | inactive
RpL34a | DRSC15964 | 2.65e7 | 4.46e7 | – | 1.61e7 | 2.04e7 | inactive
CG12929 | DRSC06242 | 4.79e7 | 4.51e7 | – | 2.27e7 | 1.55e7 | inactive
Dsk | DRSC12347 | 3.02e7 | 4.60e7 | – | 1.50e7 | 2.11e7 | inactive
BOD1 | DRSC15824 | 3.97e7 | 4.66e7 | – | 2.00e7 | 2.31e7 | inactive
Cpr49Ae | DRSC07201 | 2.28e7 | 4.03e7 | – | 1.19e7 | 1.97e7 | inactive
lncRNA:CR43632 | DRSC13730 | 3.22e7 | 3.88e7 | – | 1.53e7 | 1.78e7 | inactive
SIDL | DRSC16077 | 3.51e7 | 4.89e7 | – | 1.54e7 | 2.13e7 | inactive
CG3420 | DRSC04995 | 4.33e7 | 4.92e7 | – | 2.19e7 | 2.30e7 | inactive
Mur11Da | DRSC18960 | 4.68e7 | 3.16e7 | – | 2.04e7 | 1.50e7 | inactive
Ak6 | DRSC07274 | 3.47e7 | 3.56e7 | – | 1.76e7 | 1.81e7 | inactive
eEF1alpha2 | DRSC14079 | 3.82e7 | 3.60e7 | – | 2.02e7 | 1.58e7 | inactive
eEF1alpha2 | DRSC16658 | 1.64e7 | 2.31e7 | 1.7 | 9.87e6 | 1.11e7 | inactive
CG10748 | DRSC09797 | 2.64e7 | 3.62e7 | – | 1.49e7 | 1.65e7 | inactive
CG34124 | DRSC00849 | 3.81e7 | 4.27e7 | – | 1.96e7 | 2.01e7 | inactive
Sin1 | DRSC05965 | 4.50e7 | 4.26e7 | – | 2.01e7 | 2.12e7 | inactive
CG42324 | DRSC08431 | 3.06e7 | 4.92e7 | – | 1.68e7 | 1.98e7 | inactive
CG42324 | DRSC08432 | 3.32e7 | 4.45e7 | – | 1.79e7 | 2.01e7 | inactive
Rbp1 | DRSC16817 | 4.99e7 | 6.11e7 | – | 1.89e7 | 2.57e7 | inactive
spas | DRSC15929 | 2.18e7 | 2.43e7 | – | 1.08e7 | 1.08e7 | inactive
CG32720 | DRSC17529 | 3.89e7 | 3.14e7 | – | 1.92e7 | 1.50e7 | inactive
dbf | DRSC02570 | 3.55e7 | 4.43e7 | – | 1.73e7 | 1.86e7 | inactive
CG16998 | DRSC10235 | 2.77e7 | 3.58e7 | – | 1.31e7 | 1.54e7 | inactive
CG31321 | DRSC13028 | 2.82e7 | 4.10e7 | – | 1.31e7 | 1.72e7 | inactive
XNP | DRSC15594 | 2.12e7 | 1.93e7 | – | 1.02e7 | 1.01e7 | inactive
CG32107 | DRSC09221 | 3.74e7 | 3.63e7 | – | 1.71e7 | 1.70e7 | inactive
CG5070 | DRSC19932 | 3.61e7 | 3.08e7 | – | 1.97e7 | 1.54e7 | inactive
MED10 | DRSC10474 | 2.97e7 | 3.22e7 | – | 1.48e7 | 1.48e7 | inactive
l(3)76BDm | DRSC11047 | 2.64e7 | 3.48e7 | – | 1.20e7 | 2.54e7 | inactive
CG14316 | DRSC14795 | 3.61e7 | 3.88e7 | – | 4.38e7 | 1.65e7 | inactive
Taf3 | DRSC17170 | 2.14e7 | 3.38e7 | – | 1.13e7 | 1.59e7 | inactive
CG13160 | DRSC06284 | 2.92e7 | 3.77e7 | – | 1.48e7 | 1.53e7 | inactive
ppk7 | DRSC03236 | 3.93e7 | 3.56e7 | – | 2.23e7 | 1.60e7 | inactive
B52 | DRSC14121 | 2.44e7 | 3.02e7 | – | 1.06e7 | 1.49e7 | inactive
CG12395 | DRSC19453 | 3.67e7 | 2.70e7 | – | 2.13e7 | 1.34e7 | inactive
CG33506 | DRSC05981 | 2.83e7 | 3.77e7 | – | 1.40e7 | 1.84e7 | inactive
mam | DRSC05468 | 4.21e7 | 5.50e7 | – | 2.15e7 | 2.90e7 | inactive
mam | DRSC07648 | 2.98e7 | 2.96e7 | – | 1.95e7 | 1.89e7 | inactive
mam | DRSC22971 | 7.36e7 | 3.04e7 | – | 3.17e7 | 1.22e7 | inactive
CG42365 | DRSC04266 | 4.30e7 | 4.90e7 | – | 2.09e7 | 2.01e7 | inactive
Fbp2 | DRSC03327 | 4.38e7 | – | – | 1.99e7 | – | inactive
Rbbp5 + CG6434 (retired record) | DRSC10635 | 1.96e7 | 3.11e7 | – | 9.39e6 | 1.48e7 | inactive
Eig71Ed | DRSC11151 | 4.30e7 | 3.53e7 | – | 1.90e7 | 1.59e7 | inactive
loco | DRSC15202 | 4.06e7 | 4.13e7 | – | 1.91e7 | 1.76e7 | inactive
loco | DRSC16989 | 4.49e7 | 3.09e7 | – | 1.92e7 | 1.42e7 | inactive
Atx2 | DRSC15727 | 2.79e7 | 2.57e7 | – | 1.81e7 | 1.49e7 | inactive
Atx2 | DRSC23010 | 3.53e7 | 3.05e7 | – | 2.41e7 | 1.97e7 | active
CG1092 | DRSC12151 | 4.37e7 | 4.42e7 | – | 1.91e7 | 3.17e7 | inactive
CG17271 | DRSC15210 | 4.02e7 | 5.03e7 | – | 6.17e7 | 2.31e7 | inactive
CG17271 | DRSC22629 | 4.17e7 | 3.57e7 | – | 2.73e7 | 2.03e7 | inactive
CG17271 | DRSC22982 | 6.23e7 | 2.29e7 | – | 3.06e7 | 1.06e7 | inactive
CG6271 | DRSC16006 | 3.14e7 | 3.68e7 | – | 1.45e7 | 1.70e7 | inactive
CG4679 | DRSC06880 | 2.93e7 | 4.87e7 | – | 1.46e7 | 1.92e7 | inactive
COX4 | DRSC02091 | 4.77e7 | – | – | 2.66e7 | – | inactive
CG9673 | DRSC20202 | 4.17e7 | 3.14e7 | – | 2.03e7 | 1.39e7 | inactive
CG11275 | DRSC04095 | 3.42e7 | 6.07e7 | – | 1.52e7 | 2.42e7 | inactive
RhoGAP16F | DRSC20025 | 3.37e7 | 3.93e7 | – | 1.61e7 | 1.73e7 | inactive
CG12025 | DRSC08230 | 3.69e7 | 3.50e7 | – | 1.86e7 | 1.81e7 | inactive
Slc25A46b | DRSC02888 | 4.95e7 | 4.23e7 | – | 2.31e7 | 2.02e7 | inactive
CG4367 | DRSC15568 | 3.48e7 | 3.77e7 | – | 4.49e7 | 1.68e7 | inactive
CG9119 | DRSC08620 | 2.63e7 | 2.06e7 | – | 1.16e7 | 1.10e7 | inactive
Lint-1 | DRSC19822 | 3.20e7 | 3.95e7 | – | 1.45e7 | 1.65e7 | inactive
CG34229 | DRSC06316 | 3.25e7 | 4.03e7 | – | 1.76e7 | 1.91e7 | inactive
Mpi | DRSC16417 | 3.19e7 | 3.06e7 | – | 1.56e7 | 1.56e7 | inactive
